Test results as given in the supplement of paper PMC10849652.
Some of the results follow. Residues, ends and D or L forms follow the SMILES beside them. *: point of attachment. Cbz = O=C(OCc1ccccc1)*

Protein sequences, listed by entry. Tags and fused reporters are not part of them. Lines headed by an entry give the natural chain unless they say otherwise; changes in a name come on top.
UniProt Q9BRD0: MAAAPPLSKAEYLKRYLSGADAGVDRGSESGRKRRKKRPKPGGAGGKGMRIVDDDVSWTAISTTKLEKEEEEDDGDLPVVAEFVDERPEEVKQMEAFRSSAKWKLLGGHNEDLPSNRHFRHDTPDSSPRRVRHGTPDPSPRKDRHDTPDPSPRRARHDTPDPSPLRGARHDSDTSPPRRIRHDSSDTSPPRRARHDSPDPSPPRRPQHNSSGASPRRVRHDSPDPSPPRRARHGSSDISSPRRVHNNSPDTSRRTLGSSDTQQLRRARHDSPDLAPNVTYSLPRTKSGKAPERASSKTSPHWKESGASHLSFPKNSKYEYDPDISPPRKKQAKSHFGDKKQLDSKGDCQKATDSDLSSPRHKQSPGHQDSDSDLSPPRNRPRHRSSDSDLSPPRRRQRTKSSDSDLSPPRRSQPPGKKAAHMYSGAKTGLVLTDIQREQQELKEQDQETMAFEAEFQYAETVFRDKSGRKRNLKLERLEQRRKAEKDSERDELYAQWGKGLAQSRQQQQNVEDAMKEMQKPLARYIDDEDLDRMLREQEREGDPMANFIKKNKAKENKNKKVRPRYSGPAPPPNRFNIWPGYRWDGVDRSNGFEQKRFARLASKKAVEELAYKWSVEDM
UniProt P10643, whole entry, looked up: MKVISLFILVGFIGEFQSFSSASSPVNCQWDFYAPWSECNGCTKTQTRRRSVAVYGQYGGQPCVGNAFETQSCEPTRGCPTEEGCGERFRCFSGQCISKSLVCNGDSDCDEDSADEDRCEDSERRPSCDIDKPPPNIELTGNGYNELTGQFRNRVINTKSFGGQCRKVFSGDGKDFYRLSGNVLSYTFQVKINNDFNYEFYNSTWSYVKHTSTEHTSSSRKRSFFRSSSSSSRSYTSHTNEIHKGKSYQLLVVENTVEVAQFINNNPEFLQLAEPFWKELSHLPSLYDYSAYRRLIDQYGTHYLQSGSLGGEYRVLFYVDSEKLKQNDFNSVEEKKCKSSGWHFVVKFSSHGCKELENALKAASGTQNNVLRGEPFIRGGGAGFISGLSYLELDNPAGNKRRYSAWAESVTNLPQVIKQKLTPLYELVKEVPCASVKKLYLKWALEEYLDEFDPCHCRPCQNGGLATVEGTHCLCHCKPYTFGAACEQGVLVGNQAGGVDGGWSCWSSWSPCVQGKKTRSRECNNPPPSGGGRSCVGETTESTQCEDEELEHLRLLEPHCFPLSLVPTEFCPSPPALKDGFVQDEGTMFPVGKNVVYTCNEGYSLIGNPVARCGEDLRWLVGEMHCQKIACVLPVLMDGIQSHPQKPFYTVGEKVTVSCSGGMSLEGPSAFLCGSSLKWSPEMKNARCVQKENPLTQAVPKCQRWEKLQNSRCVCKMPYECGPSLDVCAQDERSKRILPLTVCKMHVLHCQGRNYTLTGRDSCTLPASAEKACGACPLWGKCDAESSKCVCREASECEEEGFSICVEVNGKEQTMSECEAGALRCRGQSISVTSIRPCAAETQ
UniProt Q9Y2V0: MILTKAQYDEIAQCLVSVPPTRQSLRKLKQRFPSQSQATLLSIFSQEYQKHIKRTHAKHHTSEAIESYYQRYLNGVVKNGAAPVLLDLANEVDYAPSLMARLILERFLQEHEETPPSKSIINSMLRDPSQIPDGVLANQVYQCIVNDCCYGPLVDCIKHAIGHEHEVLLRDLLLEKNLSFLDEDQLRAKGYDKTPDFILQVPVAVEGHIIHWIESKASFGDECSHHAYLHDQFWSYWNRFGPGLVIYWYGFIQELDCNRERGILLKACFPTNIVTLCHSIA
UniProt P01031, whole entry, looked up: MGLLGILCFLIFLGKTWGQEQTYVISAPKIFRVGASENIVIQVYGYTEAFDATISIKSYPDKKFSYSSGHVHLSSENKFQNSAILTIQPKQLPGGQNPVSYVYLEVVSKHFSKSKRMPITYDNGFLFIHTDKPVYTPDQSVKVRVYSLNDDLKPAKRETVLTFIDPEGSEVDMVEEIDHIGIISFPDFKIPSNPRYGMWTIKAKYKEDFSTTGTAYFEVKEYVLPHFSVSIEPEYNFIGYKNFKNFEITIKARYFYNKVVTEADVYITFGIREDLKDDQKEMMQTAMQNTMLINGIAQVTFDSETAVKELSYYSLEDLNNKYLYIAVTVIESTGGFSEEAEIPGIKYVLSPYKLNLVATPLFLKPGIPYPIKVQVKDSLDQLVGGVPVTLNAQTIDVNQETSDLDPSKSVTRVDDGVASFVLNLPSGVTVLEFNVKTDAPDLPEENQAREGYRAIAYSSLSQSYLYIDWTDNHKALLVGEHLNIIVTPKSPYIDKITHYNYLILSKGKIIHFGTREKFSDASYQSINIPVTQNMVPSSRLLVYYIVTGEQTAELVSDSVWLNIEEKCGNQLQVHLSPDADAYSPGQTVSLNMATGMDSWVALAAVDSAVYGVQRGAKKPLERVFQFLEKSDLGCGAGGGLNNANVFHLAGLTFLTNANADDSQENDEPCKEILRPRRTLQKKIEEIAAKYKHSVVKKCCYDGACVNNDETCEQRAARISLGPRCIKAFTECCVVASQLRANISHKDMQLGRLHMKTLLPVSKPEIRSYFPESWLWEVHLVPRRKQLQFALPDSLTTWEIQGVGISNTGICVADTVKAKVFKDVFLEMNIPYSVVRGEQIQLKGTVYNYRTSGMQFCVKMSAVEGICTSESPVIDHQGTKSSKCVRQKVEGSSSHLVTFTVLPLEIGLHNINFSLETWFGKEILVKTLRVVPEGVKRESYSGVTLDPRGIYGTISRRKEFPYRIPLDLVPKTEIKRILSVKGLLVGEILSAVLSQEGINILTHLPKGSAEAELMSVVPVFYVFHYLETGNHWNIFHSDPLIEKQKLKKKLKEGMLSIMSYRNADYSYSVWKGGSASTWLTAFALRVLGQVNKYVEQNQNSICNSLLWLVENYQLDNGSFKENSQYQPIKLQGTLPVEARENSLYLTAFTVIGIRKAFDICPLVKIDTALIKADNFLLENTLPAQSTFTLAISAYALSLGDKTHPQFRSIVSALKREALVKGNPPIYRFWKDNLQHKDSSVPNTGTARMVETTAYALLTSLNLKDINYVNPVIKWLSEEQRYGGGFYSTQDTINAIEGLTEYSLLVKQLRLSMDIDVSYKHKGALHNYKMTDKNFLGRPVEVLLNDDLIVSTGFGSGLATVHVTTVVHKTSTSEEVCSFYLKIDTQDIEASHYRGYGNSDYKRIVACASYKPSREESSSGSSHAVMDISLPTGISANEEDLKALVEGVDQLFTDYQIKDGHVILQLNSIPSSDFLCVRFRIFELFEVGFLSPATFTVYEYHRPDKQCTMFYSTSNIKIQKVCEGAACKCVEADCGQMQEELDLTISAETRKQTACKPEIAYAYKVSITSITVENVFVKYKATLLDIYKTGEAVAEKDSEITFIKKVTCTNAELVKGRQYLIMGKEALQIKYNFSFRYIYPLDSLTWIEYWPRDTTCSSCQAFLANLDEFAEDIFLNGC
UniProt Q86VG3: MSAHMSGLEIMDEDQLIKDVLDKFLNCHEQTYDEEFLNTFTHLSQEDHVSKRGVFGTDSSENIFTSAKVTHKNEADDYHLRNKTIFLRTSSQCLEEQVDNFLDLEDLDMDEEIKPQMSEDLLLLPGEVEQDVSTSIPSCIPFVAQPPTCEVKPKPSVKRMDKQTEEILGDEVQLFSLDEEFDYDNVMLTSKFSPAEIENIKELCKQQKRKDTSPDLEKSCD
UniProt Q5SNV9: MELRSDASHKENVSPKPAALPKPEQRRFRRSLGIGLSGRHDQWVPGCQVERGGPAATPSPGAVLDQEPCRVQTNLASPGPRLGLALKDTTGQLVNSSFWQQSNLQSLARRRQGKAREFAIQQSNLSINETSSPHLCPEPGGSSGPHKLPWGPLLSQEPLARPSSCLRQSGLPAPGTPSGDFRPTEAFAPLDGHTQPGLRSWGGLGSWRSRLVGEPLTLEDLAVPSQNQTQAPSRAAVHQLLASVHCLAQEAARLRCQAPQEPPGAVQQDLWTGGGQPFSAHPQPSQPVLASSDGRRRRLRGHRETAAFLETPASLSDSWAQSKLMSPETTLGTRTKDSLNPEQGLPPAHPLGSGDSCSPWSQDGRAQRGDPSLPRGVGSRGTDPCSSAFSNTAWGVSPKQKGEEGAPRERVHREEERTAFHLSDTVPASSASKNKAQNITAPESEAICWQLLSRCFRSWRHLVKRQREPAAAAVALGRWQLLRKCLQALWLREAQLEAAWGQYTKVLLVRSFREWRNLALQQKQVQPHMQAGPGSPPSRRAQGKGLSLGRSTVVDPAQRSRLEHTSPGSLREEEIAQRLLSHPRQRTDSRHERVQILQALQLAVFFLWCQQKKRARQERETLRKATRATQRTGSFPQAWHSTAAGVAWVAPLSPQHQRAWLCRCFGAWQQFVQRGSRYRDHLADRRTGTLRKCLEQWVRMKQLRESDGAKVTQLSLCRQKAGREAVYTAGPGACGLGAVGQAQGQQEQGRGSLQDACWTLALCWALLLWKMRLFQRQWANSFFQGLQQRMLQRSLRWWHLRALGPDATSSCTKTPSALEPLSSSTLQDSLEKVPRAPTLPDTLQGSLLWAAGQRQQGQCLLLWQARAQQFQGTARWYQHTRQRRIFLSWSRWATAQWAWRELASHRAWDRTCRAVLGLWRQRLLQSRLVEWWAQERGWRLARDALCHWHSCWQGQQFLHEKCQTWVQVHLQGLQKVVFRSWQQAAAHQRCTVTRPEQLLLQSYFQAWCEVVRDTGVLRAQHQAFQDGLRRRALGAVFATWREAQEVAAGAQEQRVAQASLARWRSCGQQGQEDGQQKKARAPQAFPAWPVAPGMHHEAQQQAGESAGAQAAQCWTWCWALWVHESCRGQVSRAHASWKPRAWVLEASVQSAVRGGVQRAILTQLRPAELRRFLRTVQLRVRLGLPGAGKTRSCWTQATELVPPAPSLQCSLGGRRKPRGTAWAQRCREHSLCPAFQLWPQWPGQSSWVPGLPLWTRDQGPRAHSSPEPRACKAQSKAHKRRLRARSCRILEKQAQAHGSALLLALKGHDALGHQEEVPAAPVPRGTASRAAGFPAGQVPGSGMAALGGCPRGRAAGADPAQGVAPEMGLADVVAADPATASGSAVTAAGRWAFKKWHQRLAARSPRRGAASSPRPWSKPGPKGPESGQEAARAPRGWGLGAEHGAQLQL
UniProt Q9Y297: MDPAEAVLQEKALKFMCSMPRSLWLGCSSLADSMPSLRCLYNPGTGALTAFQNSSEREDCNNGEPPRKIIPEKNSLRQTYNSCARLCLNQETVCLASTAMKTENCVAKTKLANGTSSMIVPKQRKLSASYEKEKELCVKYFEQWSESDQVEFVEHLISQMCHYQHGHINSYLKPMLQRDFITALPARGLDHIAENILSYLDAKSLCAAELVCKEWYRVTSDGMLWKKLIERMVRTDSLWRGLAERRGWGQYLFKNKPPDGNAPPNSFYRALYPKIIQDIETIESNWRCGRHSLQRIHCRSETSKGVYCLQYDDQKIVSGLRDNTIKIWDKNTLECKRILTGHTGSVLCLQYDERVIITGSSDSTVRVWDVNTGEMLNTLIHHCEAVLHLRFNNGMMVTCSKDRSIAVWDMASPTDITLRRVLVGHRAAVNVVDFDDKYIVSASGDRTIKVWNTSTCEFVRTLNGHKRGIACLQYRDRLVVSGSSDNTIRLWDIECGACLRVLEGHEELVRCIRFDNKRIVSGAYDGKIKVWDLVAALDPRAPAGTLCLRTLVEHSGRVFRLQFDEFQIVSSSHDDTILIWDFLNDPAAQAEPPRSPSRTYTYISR
UniProt Q06187: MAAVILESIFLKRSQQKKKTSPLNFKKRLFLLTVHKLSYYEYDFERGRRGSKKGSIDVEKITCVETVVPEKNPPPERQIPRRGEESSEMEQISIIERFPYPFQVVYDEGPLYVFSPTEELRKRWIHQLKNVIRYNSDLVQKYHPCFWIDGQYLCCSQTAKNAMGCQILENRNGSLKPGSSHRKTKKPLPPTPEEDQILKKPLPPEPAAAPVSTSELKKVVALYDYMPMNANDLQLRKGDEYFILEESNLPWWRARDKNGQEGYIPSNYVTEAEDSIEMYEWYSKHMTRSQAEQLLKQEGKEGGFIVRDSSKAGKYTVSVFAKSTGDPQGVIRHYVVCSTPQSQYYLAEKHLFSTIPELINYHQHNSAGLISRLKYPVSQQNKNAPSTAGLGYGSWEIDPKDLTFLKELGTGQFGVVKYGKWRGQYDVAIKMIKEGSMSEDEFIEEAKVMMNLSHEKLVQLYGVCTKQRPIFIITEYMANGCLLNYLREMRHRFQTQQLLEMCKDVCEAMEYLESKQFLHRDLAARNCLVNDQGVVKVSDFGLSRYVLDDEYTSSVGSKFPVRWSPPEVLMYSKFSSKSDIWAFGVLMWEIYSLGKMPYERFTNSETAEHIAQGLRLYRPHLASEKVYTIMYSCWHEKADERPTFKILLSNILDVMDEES
UniProt Q9NSK7: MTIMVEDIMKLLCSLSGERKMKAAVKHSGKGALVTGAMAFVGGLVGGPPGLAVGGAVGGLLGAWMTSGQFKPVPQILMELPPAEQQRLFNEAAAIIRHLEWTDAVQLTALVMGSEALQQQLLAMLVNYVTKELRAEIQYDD

What was measured:
Test in all cases: log2 fold change, soluble protein after heating vs DMSO (PISA); higher = thermal stabilisation; K562 cells, 10 uM, 30 min; active = over 0.2 and 3.5 SD of the protein, either way, in both replicates (recomputed)
IRAK-1-4 Inhibitor I = compound: C1COCCN1CCN2C3=CC=CC=C3N=C2NC(=O)C4=CC(=CC=C4)[N+](=O)[O-] [IRAK-1-4 Inhibitor I]
In short: (§1)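 Soluble protein was defined as the supernatant after 21,000xg for 90 min. It came from K562 cells at 2×10^6 cells/mL given 10 μM compound for 30 min, heated in aliquots for 3 min across 48°C-58°C, pooled, and extracted in PBS with 0.5% NP-40 at 4°C, and was quantified by TMTpro 16plex LC-MS/MS with equalised channel sums. Thermal stability against control samples, from duplicates, is reported as log2 fold change.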

[1] = compound: CC(=O)c1cnc2ccc(-c3cc(Cl)c(O)c(Cl)c3)nc2c1N[C@H]1CC[C@H](CN(C)C)CC1
In short: as §1

ralimetinib = compound: CC(C)(C)Cn1c(N)nc2ccc(-c3[nH]c(C(C)(C)C)nc3-c3ccc(F)cc3)nc21 [ralimetinib]
In short: as §1

[2] = compound: CC(C)(O)CC(=O)NCCn1ccc2ncnc(Nc3ccc(Oc4cccc(C(F)(F)F)c4)c(Cl)c3)c21
In short: as §1

[3] = compound: CC(C)C1=C2N=C(C=C(N2N=C1)NCC3=CC=CC=C3)NCCCCCCN
In short: as §1

[4] = compound: CC(C)C[C@@H](C=O)NC(=O)[C@H](CC(C)C)NC(=O)[C@H](CC(C)C)NC(=O)OCc1ccccc1
In short: as §1

pinometostat = compound: CC(C)N(C[C@H]1O[C@@H](n2cnc3c(N)ncnc32)[C@H](O)[C@@H]1O)[C@H]1C[C@@H](CCc2nc3cc(C(C)(C)C)ccc3[nH]2)C1 [pinometostat]
In short: as §1

[5] = compound: CC1=C(C(CC(=O)N1)C2=CC=C(C=C2)C(F)(F)F)C(=O)NC3=C(C=C4C(=C3)C=NN4)F
In short: as §1

[6] = compound: CC1=C(C2=C(C=C1)C(=O)C3=CC=CC=C3N2CCCN)C
In short: as §1

[7] = compound: CC1=C(C=C(C=C1)NC(=O)C2=CC(=CC=C2)C(C)(C)C#N)NC3=CC4=C(C=C3)N=CN(C4=O)C
In short: as §1

[8] = compound: CC1=C(C=C(C=C1)NC(=O)C2=CC(=CC=C2)N(C)C)NC(=O)C3=CC=C(C=C3)O
In short: as §1

[9] = compound: CC1=CC=C(C=C1)SC2=C3C=C(SC3=CN=C2)C(=O)N
In short: as §1

[10] = compound: CC1=NC(=CC=C1)C2=C(N=C(N2)C(C)(C)C)C3=CC4=NC=CN=C4C=C3
In short: as §1

Nexturastat A = compound: CCCCN(Cc1ccc(C(=O)NO)cc1)C(=O)Nc1ccccc1 [Nexturastat A]
In short: as §1

vemurafenib = compound: CCCS(=O)(=O)Nc1ccc(F)c(C(=O)c2c[nH]c3ncc(-c4ccc(Cl)cc4)cc23)c1F [vemurafenib]
In short: as §1

[11] = compound: CCCS(=O)(=O)Nc1ccc(F)c(C(=O)c2c[nH]c3ncc(Cl)cc23)c1F
In short: as §1

[12] = compound: CCCc1cc(C)[nH]c(=O)c1CNC(=O)c1cc(-c2ccnc(N3CCN(C)CC3)c2)cc2c1cnn2C(C)C
In short: as §1

givinostat = compound: CCN(CC)Cc1ccc2cc(COC(=O)Nc3ccc(C(=O)NO)cc3)ccc2c1 [givinostat]
In short: as §1

ibrutinib = compound: C=CC(=O)N1CCC[C@@H](n2nc(-c3ccc(Oc4ccccc4)cc3)c3c(N)ncnc32)C1 [ibrutinib]
In short: as §1

barasertib = compound: CCN(CCCOc1ccc2c(Nc3cc(CC(=O)Nc4cccc(F)c4)[nH]n3)ncnc2c1)CCOP(=O)(O)O [barasertib]
In short: as §1

Measured: log2 fold change

BUD13 (UniProt Q9BRD0)
inactive: IRAK-1-4 Inhibitor I -0.164 | [1] -0.207 | ralimetinib 0.155 | [2] 0.122 | [3] -0.039 | [4] 0.176 | pinometostat 0.144 | [5] 0.002 | [6] -0.199 | [7] -0.027 | [8] 0.125 | [9] -0.089 | [10] -0.038 | Nexturastat A 0.227 | vemurafenib -0.112 | [11] -0.02 | [12] 0.101 | givinostat 0.025

C7 (UniProt P10643)
inactive: IRAK-1-4 Inhibitor I -0.012 | ibrutinib 0.386 | [1] -0.007 | [2] 0.26 | [3] 0.122 | pinometostat 0.15 | [5] 0.04 | [6] -0.238 | [7] -0.089 | [9] 0.073 | [10] -0.06 | Nexturastat A -0.274 | vemurafenib 0.039 | [11] -0.2 | givinostat -0.109 | barasertib 0.029

C15orf41 (UniProt Q9Y2V0)
inactive: IRAK-1-4 Inhibitor I 0.105 | [1] 0.062 | ralimetinib 0.004 | [2] -0.103 | [3] -0.17 | [4] 0.11 | pinometostat 0.027 | [6] -0.117 | [7] 0.022 | [8] -0.026 | [9] -0.017 | [10] -0.002 | Nexturastat A -0.006 | vemurafenib 0.015 | [11] 0.032 | givinostat -0.012

C5 (UniProt P01031)
inactive: IRAK-1-4 Inhibitor I 0.07 | [2] 0.15 | pinometostat -0.06 | [6] -0.116 | [7] -0.144 | [10] -0.111 | Nexturastat A -0.073 | vemurafenib -0.257

C11orf74 (UniProt Q86VG3)
inactive: IRAK-1-4 Inhibitor I 0.238 | [2] -0.018 | [3] 0.06 | pinometostat 0 | [5] -0.118 | [6] -0.231 | [7] 0.017 | [10] 0.134 | Nexturastat A 0.365 | vemurafenib 0.085 | [12] -0.119 | givinostat -0.028

C1orf167 isoform 2 (UniProt Q5SNV9)
inactive: IRAK-1-4 Inhibitor I 0.015 | ibrutinib -0.252 | [2] -0.044 | [3] -0.024 | pinometostat -0.035 | [5] 0.019 | [7] -0.029 | [9] -0.171 | [10] 0 | Nexturastat A 0.033 | vemurafenib -0.237 | [11] -0.241 | [12] -0.126 | givinostat -0.03 | barasertib -0.032

BTRC (UniProt Q9Y297)
inactive: IRAK-1-4 Inhibitor I -0.026 | ibrutinib 0.157 | [1] -0.064 | [2] -0.216 | [3] -0.137 | pinometostat 0.086 | [5] 0.041 | [6] -0.103 | [7] -0.008 | [9] 0.07 | [10] -0.048 | Nexturastat A -0.053 | vemurafenib 0.057 | [11] 0.016 | [12] -0.05 | givinostat -0.024 | barasertib 0.085

C18orf25 isoform 2 (UniProt Q96B23)
inactive: IRAK-1-4 Inhibitor I 0.027 | ibrutinib -0.043 | [1] -0.008 | [2] 0.048 | [3] 0.061 | pinometostat -0.06 | [5] -0.014 | [6] -0.202 | [7] 0.023 | [9] 0.004 | [10] 0.084 | Nexturastat A -0.037 | vemurafenib -0.135 | [11] 0 | [12] 0.006 | givinostat 0.061 | barasertib -0.03

BTK isoform 2 (UniProt Q06187)
inactive: IRAK-1-4 Inhibitor I -0.125 | [1] -0.125 | ralimetinib 0.197 | [2] -0.011 | [3] -0.295 | [4] 0.211 | pinometostat 0.512 | [5] -0.073 | [6] -0.068 | [7] -0.053 | [8] 0.072 | [10] -0.025 | Nexturastat A 0.349 | vemurafenib 0.008 | [12] 0.02 | givinostat 0.233

CAPNS2 (UniProt Q96L46)
inactive: IRAK-1-4 Inhibitor I -0.041 | ralimetinib -0.005 | [4] -0.049 | pinometostat 0.274 | [8] -0.134 | [10] -0.068 | [12] 0.132

C19orf12 (UniProt Q9NSK7)
inactive: ibrutinib 0.002 | [1] 0.096 | [2] -0.032 | [5] 0.08 | [6] 0.021 | [9] 0.085 | Nexturastat A 0.083 | [11] 0.046 | [12] -0.011 | barasertib -0.009

CALCOCO1 (UniProt Q9P1Z2)
inactive: IRAK-1-4 Inhibitor I 0.095 | ibrutinib -0.017 | ralimetinib 0.067 | [2] 0.031 | [3] -0.064 | [4] 0.098 | pinometostat -0.065 | [5] 0.049 | [6] -0.031 | [8] -0.085 | [9] 0.037 | [10] -0.024 | Nexturastat A 0.119 | vemurafenib -0.02 | [11] -0.022 | [12] 0.044 | givinostat 0.03 | barasertib 0.042
